# Source: patent EP0417790B1, “S-triazolo[3,4-i]purine derivatives” (Kyowa Hakko Kogyo Co., Ltd., priority 1989, dated 1991)
# Like-named read-outs stand apart in the source and are kept apart here.
# System: Wistar male rats
# Assay: Diuretic activity
# Type: in vivo
# Details: Rattus norvegicus, po, 25 mg/kg orally, urine taken for 6 hours, relative value for control (100)
# Procedure: Wistar male rats weighing 150 to 300 g were used after fasting for 18 hours. […] The test was performed using 3 groups per test compound, and each group consists of 3 animals. The urine was metered by a measuring cylinder and electrolytes (Na^+ and K^+) in the urine were analyzed by flame photometer (model […]: Hitachi Ltd.). Parameters in Table 3 are represented by relative value for control.
smiles,measurement,setting,value
"NS(=O)(=O)c1cc(C(=O)O)c(NCc2ccco2)cc1Cl [Furosemide, reference compound]",response vs control in vivo at 25 mg/kg,read-out: Excretion of K^+,157%
same,response vs control in vivo at 25 mg/kg,read-out: Excretion of Na^+,164%
same,response vs control in vivo at 25 mg/kg,read-out: Urine volume,175%
